Values from PubChem BioAssay AID1224830 (NIAID, 2016).
Test: 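Host factors that control LPS-induced TNF expression in human macrophages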 (primary screen). Cells: human THP-1 monocytic leukaemia cells, TNF dual-luciferase reporter clone, PMA-differentiated to macrophage-like cells. Knock-down reagent: siRNA pool against human genes, 50 nM. Time to read-out: LPS for 4 h, given about 3 days after siRNA transfection. Conditions: bacterial LPS (TLR4 ligand), 10 ng/ml. Detection: 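TNF firefly reporter luminescence divided by renilla, normalised to the plate median, then turned into a robust z-score for each replicate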. Direction: TNF reporter robust z-score: higher = stronger TNF reporter response to LPS. Active means: 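Each well counts as active if its z-score is over 2.8 or under -1.5; controls are left without a call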.
Shown is an unselected part of about 18,000 reagents. In the full data, about 2,900 (16%) are marked active. 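Calls are made per well; low scores hint the gene aids the LPS response, high scores that it dampens it.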 Repeated entries: four replicate wells of each siRNA pool.

TSPAN1 (tetraspanin 1) showed TNF reporter robust z-score 3.48; active. After knock-down of TSPAN1 (tetraspanin 1), the screen gave TNF reporter robust z-score -0.53; inactive. Knock-down of TSPAN1 (tetraspanin 1) came out at: TNF reporter robust z-score -0.24; inactive. After knock-down of TSPAN1 (tetraspanin 1), the screen gave TNF reporter robust z-score 0.07; inactive. LPAR2 (lysophosphatidic acid receptor 2) showed TNF reporter robust z-score -0.22; inactive. LPAR2 (lysophosphatidic acid receptor 2) gave TNF reporter robust z-score 2.12; inactive.

LPAR2 (lysophosphatidic acid receptor 2) showed TNF reporter robust z-score 1.06; inactive. LPAR2 (lysophosphatidic acid receptor 2) gave TNF reporter robust z-score 1.25; inactive. CD300LB (CD300 molecule like family member b) scored TNF reporter robust z-score -0.81; inactive. For CD300LB (CD300 molecule like family member b) the deposit lists TNF reporter robust z-score -0.41; inactive. Knock-down of CD300LB (CD300 molecule like family member b) gave: TNF reporter robust z-score 0.63; inactive. Against CD300LB (CD300 molecule like family member b), the values are TNF reporter robust z-score 0.31; inactive.

Knock-down of OR52K2 (olfactory receptor family 52 subfamily K member 2) resulted in: TNF reporter robust z-score -0.4; inactive. For OR52K2 (olfactory receptor family 52 subfamily K member 2), the entry reads TNF reporter robust z-score -0.87; inactive. Silencing of OR52K2 (olfactory receptor family 52 subfamily K member 2) gave: TNF reporter robust z-score -1.05; inactive. Against OR52K2 (olfactory receptor family 52 subfamily K member 2) the deposit lists TNF reporter robust z-score -1.09; inactive. Knock-down of MS4A14 (membrane spanning 4-domains A14) came out at: TNF reporter robust z-score -1.63; active. Depletion of MS4A14 (membrane spanning 4-domains A14) came out at: TNF reporter robust z-score -1.32; inactive.

With knock-down of MS4A14 (membrane spanning 4-domains A14) the results were TNF reporter robust z-score -0.98; inactive. With knock-down of MS4A14 (membrane spanning 4-domains A14), the screen gave TNF reporter robust z-score -1.33; inactive. ANXA10 (annexin A10) scored TNF reporter robust z-score 0.52; inactive. ANXA10 (annexin A10) scored TNF reporter robust z-score -0.13; inactive. Against ANXA10 (annexin A10), the values are TNF reporter robust z-score -0.62; inactive. Knock-down of ANXA10 (annexin A10) resulted in: TNF reporter robust z-score -0.32; inactive.

COPS2 (COP9 signalosome subunit 2) scored TNF reporter robust z-score -0.89; inactive. Against COPS2 (COP9 signalosome subunit 2), the values are TNF reporter robust z-score -1.27; inactive. Knock-down of COPS2 (COP9 signalosome subunit 2) gave: TNF reporter robust z-score -1.17; inactive. Against COPS2 (COP9 signalosome subunit 2) the deposit lists TNF reporter robust z-score -1.32; inactive. Against HOXA5 (homeobox A5) the deposit lists TNF reporter robust z-score 0.98; inactive. Knock-down of HOXA5 (homeobox A5) gave: TNF reporter robust z-score 0.6; inactive.

After knock-down of HOXA5 (homeobox A5), the screen gave TNF reporter robust z-score 0.95; inactive. HOXA5 (homeobox A5) scored TNF reporter robust z-score 1.31; inactive. Depletion of ABCD1 (ATP binding cassette subfamily D member 1) came out at: TNF reporter robust z-score 1.36; inactive. Depletion of ABCD1 (ATP binding cassette subfamily D member 1) resulted in: TNF reporter robust z-score 1.64; inactive. With knock-down of ABCD1 (ATP binding cassette subfamily D member 1), the screen gave TNF reporter robust z-score 2.05; inactive. With knock-down of ABCD1 (ATP binding cassette subfamily D member 1), the record shows TNF reporter robust z-score 1.77; inactive.

For RBM26 (RNA binding motif protein 26), the entry reads TNF reporter robust z-score -0.64; inactive. Knock-down of RBM26 (RNA binding motif protein 26) resulted in: TNF reporter robust z-score -0.52; inactive. With knock-down of RBM26 (RNA binding motif protein 26), the screen gave TNF reporter robust z-score -0.22; inactive. Silencing of RBM26 (RNA binding motif protein 26) came out at: TNF reporter robust z-score -1.37; inactive. Knock-down of C6orf89 (chromosome 6 open reading frame 89) resulted in: TNF reporter robust z-score 1.16; inactive. Silencing of C6orf89 (chromosome 6 open reading frame 89) resulted in: TNF reporter robust z-score 0.67; inactive.

Depletion of C6orf89 (chromosome 6 open reading frame 89) came out at: TNF reporter robust z-score -0.57; inactive. C6orf89 (chromosome 6 open reading frame 89) scored TNF reporter robust z-score -0.61; inactive. AKR1E2 (aldo-keto reductase family 1 member E2) scored TNF reporter robust z-score -1.18; inactive. AKR1E2 (aldo-keto reductase family 1 member E2) showed TNF reporter robust z-score -0.21; inactive. AKR1E2 (aldo-keto reductase family 1 member E2) scored TNF reporter robust z-score -0.83; inactive. For AKR1E2 (aldo-keto reductase family 1 member E2), the entry reads TNF reporter robust z-score -0.04; inactive.

Called active (from the list above):
TSPAN1 (tetraspanin 1) → TNF reporter robust z-score: 3.48; activity call: active
MS4A14 (membrane spanning 4-domains A14) → TNF reporter robust z-score: -1.63; activity call: active
